For some assays here: Protein sequences can lack the tags named with them.

The chains behind the UniProt entries cited, without tags or fusion partners. Residues count along the entry.
UniProt P08047, 2-785: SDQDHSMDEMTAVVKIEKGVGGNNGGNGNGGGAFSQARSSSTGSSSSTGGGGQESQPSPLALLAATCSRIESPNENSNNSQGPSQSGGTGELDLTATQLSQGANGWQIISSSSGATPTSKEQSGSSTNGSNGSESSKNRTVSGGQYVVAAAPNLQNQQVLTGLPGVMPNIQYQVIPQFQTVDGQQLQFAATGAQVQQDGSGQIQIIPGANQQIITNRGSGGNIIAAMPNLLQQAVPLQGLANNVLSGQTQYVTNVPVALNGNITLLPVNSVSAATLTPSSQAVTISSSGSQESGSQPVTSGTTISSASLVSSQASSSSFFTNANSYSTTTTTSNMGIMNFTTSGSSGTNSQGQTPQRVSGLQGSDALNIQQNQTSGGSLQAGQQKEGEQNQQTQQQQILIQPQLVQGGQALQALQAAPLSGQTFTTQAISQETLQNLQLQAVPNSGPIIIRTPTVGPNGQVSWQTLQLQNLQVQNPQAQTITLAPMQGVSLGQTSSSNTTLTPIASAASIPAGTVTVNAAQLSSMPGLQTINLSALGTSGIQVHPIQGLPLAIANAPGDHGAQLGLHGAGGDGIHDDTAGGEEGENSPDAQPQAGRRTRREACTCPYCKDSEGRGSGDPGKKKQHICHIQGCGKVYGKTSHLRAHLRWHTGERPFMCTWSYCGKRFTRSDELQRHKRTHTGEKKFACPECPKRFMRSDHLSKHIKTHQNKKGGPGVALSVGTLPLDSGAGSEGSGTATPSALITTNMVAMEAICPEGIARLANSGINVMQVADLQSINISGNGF

One data set deals with T1, MAZ (UniProt P56270).
T1 sequence (looked up, limits assumed): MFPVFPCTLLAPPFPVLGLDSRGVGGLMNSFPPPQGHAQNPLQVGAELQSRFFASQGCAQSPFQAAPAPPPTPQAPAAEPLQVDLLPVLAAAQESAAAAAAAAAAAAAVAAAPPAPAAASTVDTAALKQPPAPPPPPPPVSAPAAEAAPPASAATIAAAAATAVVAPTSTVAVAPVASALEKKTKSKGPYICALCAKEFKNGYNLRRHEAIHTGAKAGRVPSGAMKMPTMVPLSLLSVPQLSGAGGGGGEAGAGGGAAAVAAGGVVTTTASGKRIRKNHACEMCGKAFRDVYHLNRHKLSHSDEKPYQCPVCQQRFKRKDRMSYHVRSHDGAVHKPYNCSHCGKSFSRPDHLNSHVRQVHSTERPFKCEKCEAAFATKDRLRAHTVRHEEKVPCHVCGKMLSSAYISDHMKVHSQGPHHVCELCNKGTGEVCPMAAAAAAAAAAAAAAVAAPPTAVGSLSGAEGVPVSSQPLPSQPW
In words: footprint. The settings on record: -18GC occupied at lower protein than -36GC; also -166 and weak -130 site; purified recombinant protein; protein details: prepared as in Parks and Shenk 1996; label: 32P end label at +47.

A further data set has as its target Sp1 (UniProt P08047). Description: footprint. The settings on record: binds only -166 and -18GC, not -36GC; purified recombinant protein; protein details: Promega; label: 32P end label at +47.

As for “ACTCTGAGACAAAGGCTCGCGTCCAGGCCAGCACGAAGGAGGCTAAGTGGGAGGGGTAGCGGTCGTTGTCCACTAGGGGGTCCACTCGCTCCAGGGTGTGAAGACACATGTCGCCCTCTTCGGCATCAAGGAAGGTGATTGGTTTGTAGGTGTAGGCCACGTGACCGGGTGTTCCTGAAGGGGGGCTATAAAAGGGGGTGGGGGCGCGTTCGTCCTCACTCTCTTCCGC (double strand) [Ad5 MLP (-260 to +47 probe; printed sequence 229 nt)]”, the binding result with MAZ and in the data set with Sp1 was “binds” in each case.
